{"sequences": {"note": "Chains of the proteins cited; added tags and fusions are not shown. Residues count along the entry.", "UniProt P13595, residues 20-1115": "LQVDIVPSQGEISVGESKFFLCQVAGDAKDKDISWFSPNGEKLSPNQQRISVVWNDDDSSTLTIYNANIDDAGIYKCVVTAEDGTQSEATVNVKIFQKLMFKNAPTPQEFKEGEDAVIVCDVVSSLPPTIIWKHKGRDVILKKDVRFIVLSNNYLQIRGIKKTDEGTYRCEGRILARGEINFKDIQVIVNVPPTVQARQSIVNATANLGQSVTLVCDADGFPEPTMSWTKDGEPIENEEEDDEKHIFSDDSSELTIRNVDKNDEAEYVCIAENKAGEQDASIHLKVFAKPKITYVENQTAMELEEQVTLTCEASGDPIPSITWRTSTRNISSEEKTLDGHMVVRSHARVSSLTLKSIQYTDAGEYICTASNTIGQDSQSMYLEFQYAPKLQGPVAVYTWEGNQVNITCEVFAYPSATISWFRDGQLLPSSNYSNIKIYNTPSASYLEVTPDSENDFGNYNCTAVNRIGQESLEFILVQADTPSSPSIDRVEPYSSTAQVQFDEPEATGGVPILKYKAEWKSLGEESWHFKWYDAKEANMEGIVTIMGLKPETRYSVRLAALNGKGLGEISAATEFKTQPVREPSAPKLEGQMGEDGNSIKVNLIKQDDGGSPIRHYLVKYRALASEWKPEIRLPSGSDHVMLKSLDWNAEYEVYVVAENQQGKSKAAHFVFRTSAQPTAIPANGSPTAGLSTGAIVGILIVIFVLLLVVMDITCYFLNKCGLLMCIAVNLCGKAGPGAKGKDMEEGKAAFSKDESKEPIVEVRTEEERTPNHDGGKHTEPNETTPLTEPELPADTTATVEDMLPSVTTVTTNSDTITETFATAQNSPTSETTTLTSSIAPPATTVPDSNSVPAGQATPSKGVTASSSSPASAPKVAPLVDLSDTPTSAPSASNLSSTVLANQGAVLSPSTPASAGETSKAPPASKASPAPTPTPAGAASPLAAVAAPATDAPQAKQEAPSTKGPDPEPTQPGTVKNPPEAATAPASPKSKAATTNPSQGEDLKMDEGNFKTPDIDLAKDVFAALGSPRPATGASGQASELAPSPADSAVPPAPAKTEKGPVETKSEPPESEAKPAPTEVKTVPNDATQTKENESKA"}, "source": "paper PMC10743696", "target": "PrP^C of differentiated C2C12 cultures (mouse (endogenous in C2C12)) (UniProt P04925)", "test": "cross-linking", "note": "Results are given in words; binding and its absence hold for the method and conditions named. In cells and extracts the contact can be indirect. Some entries that bind do so weakly or less than the wild type."}
{"substance": "neural cell adhesion molecule (NCAM) (from UniProt P13595 20-1115)", "values": [{"measurement": "binding", "result": "binds"}]}
